# Assay results as given in the supplement of paper PMC8728848.
# The list shows a part of the results.
# B1: PX9961M-bvu-482-23-482 (Bacteroides vulgatus) (protein)
# chain: WLDLAPSTQVDTETSINVLSDIEFTLNGIYSTMQSSDAYSGRLVYYGDVTGDDMQAVSSTKRTGNYYRFNFTKDNGPSSHWSYLYSIIQNCNLILMNVDKLSIDEDETEYKNDLKGQALAIRGMALFDLTRIFGYPYLKDNGASLGVPIVKELSTIDSKPARNTVAECYTEIISDLKNSTELLSGDFNKGKVNRWAAMTLLSRVYLYKGEYNEALTMAENAIKGAEKEGYALWTNEEYPTAWGNDASASNPGEILFEIVNLTTDSPGKESMGYLNSYNGYDDMCITCSFYQLLKKDPKDVRLKILSFDKKYYAYVNKYQPQQGENITDANIPLIRLSEAYLNAAEAAVQTGDNAKAVKYLNSIVQRANPENSVEGKTLTLENVLDERRKELVAEGHRMYDVIRNGMTVKRIDVKDSDINKTKHNTAYMEYDWNFHKILLPIPKKEMDANPNMKQNPGYVD
# What was measured:
# Experiment in all cases: glycan array binding signal (z-score within array); higher = stronger binding
# Settings in all cases: glycan notation: IUPAC condensed, linker removed
# [1] = molecular target: GlcNAc(b1-3)Gal(b1-4)Glc
# Procedure, shortened: (§1)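 Glycan array data came from 3228 arrays in the Consortium for Functional Glycomics database, and only arrays with an available protein sequence were kept. Glycan names were put into IUPAC-condensed notation, and columns mapping to the same glycan were averaged. The binding signal is a within-array Z-score, averaged across arrays of one protein sequence run at different concentrations or buffers and across linkers. A negative Z-score can be read as non-binding.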
# [2] = molecular target: GlcNAc(b1-3)Gal(b1-4)GlcNAc
# Procedure, shortened: as §1
# [3] = molecular target: GlcNAc(b1-3)Gal(b1-4)GlcNAc(b1-2)Man(a1-3)[GlcNAc(b1-3)Gal(b1-4)GlcNAc(b1-2)Man(a1-6)]Man(b1-4)GlcNAc(b1-4)GlcNAc
# Procedure, shortened: as §1
# [4] = molecular target: GlcNAc(b1-3)Gal(b1-4)GlcNAc(b1-2)Man(a1-3)[GlcNAc(b1-3)Gal(b1-4)GlcNAc(b1-2)Man(a1-6)]Man(b1-4)GlcNAc(b1-4)[Fuc(a1-6)]GlcNAc
# Procedure, shortened: as §1
# [5] = molecular target: GlcNAc(b1-3)Gal(b1-4)GlcNAc(b1-2)[GlcNAc(b1-3)Gal(b1-4)GlcNAc(b1-6)]Man(a1-6)[GlcNAc(b1-3)Gal(b1-4)GlcNAc(b1-2)Man(a1-3)]Man(b1-4)GlcNAc(b1-4)GlcNAc
# Procedure, shortened: as §1
# [6] = molecular target: GlcNAc(b1-3)Gal(b1-4)GlcNAc(b1-3)Gal(b1-4)GlcNAc
# Procedure, shortened: as §1
# [7] = molecular target: GlcNAc(b1-3)Gal(b1-4)GlcNAc(b1-3)Gal(b1-4)GlcNAc(b1-2)Man(a1-3)[GlcNAc(b1-3)Gal(b1-4)GlcNAc(b1-3)Gal(b1-4)GlcNAc(b1-2)Man(a1-6)]Man(b1-4)GlcNAc(b1-4)GlcNAc
# Procedure, shortened: as §1
# [8] = molecular target: GlcNAc(b1-3)Gal(b1-4)GlcNAc(b1-3)Gal(b1-4)GlcNAc(b1-2)Man(a1-3)[GlcNAc(b1-3)Gal(b1-4)GlcNAc(b1-3)Gal(b1-4)GlcNAc(b1-2)Man(a1-6)]Man(b1-4)GlcNAc(b1-4)[Fuc(a1-6)]GlcNAc
# Procedure, shortened: as §1
# [9] = molecular target: GlcNAc(b1-3)Gal(b1-4)GlcNAc(b1-3)Gal(b1-4)GlcNAc(b1-2)[GlcNAc(b1-3)Gal(b1-4)GlcNAc(b1-3)Gal(b1-4)GlcNAc(b1-6)]Man(a1-6)[GlcNAc(b1-3)Gal(b1-4)GlcNAc(b1-3)Gal(b1-4)GlcNAc(b1-2)Man(a1-3)]Man(b1-4)GlcNAc(b1-4)[Fuc(a1-6)]GlcNAc
# Procedure, shortened: as §1
# [10] = molecular target: GlcNAc(b1-3)Gal(b1-4)GlcNAc(b1-3)Gal(b1-4)GlcNAc(b1-3)Gal(b1-4)GlcNAc(b1-2)Man(a1-3)[GlcNAc(b1-3)Gal(b1-4)GlcNAc(b1-3)Gal(b1-4)GlcNAc(b1-3)Gal(b1-4)GlcNAc(b1-2)Man(a1-6)]Man(b1-4)GlcNAc(b1-4)GlcNAc
# Procedure, shortened: as §1
# [11] = molecular target: GlcNAc(b1-3)Gal(b1-4)GlcNAc(b1-3)Gal(b1-4)GlcNAc(b1-3)Gal(b1-4)GlcNAc(b1-2)Man(a1-3)[GlcNAc(b1-3)Gal(b1-4)GlcNAc(b1-3)Gal(b1-4)GlcNAc(b1-3)Gal(b1-4)GlcNAc(b1-2)Man(a1-6)]Man(b1-4)GlcNAc(b1-4)[Fuc(a1-6)]GlcNAc
# Procedure, shortened: as §1
# [12] = molecular target: GlcNAc(b1-3)Gal(b1-4)GlcNAc(b1-3)Gal(b1-4)GlcNAc(b1-3)Gal(b1-4)GlcNAc(b1-2)[GlcNAc(b1-3)Gal(b1-4)GlcNAc(b1-3)Gal(b1-4)GlcNAc(b1-3)Gal(b1-4)GlcNAc(b1-6)]Man(a1-6)[GlcNAc(b1-3)Gal(b1-4)GlcNAc(b1-3)Gal(b1-4)GlcNAc(b1-3)Gal(b1-4)GlcNAc(b1-2)Man(a1-3)]Man(b1-4)GlcNAc(b1-4)[Fuc(a1-6)]GlcNAc
# Procedure, shortened: as §1
# [13] = molecular target: GlcNAc(b1-3)Gal(b1-4)GlcNAc(b1-3)Gal(b1-4)GlcNAc(b1-3)Gal(b1-4)GlcNAc(b1-3)Gal(b1-4)GlcNAc(b1-2)Man(a1-3)[GlcNAc(b1-3)Gal(b1-4)GlcNAc(b1-3)Gal(b1-4)GlcNAc(b1-3)Gal(b1-4)GlcNAc(b1-3)Gal(b1-4)GlcNAc(b1-2)Man(a1-6)]Man(b1-4)GlcNAc(b1-4)GlcNAc
# Procedure, shortened: as §1
# [14] = molecular target: GlcNAc(b1-3)Gal(b1-4)GlcNAc(b1-3)Gal(b1-4)GlcNAc(b1-3)Gal(b1-4)GlcNAc(b1-3)Gal(b1-4)GlcNAc(b1-2)Man(a1-3)[GlcNAc(b1-3)Gal(b1-4)GlcNAc(b1-3)Gal(b1-4)GlcNAc(b1-3)Gal(b1-4)GlcNAc(b1-3)Gal(b1-4)GlcNAc(b1-2)Man(a1-6)]Man(b1-4)GlcNAc(b1-4)[Fuc(a1-6)]GlcNAc
# Procedure, shortened: as §1
# [15] = molecular target: GlcNAc(b1-3)Gal(b1-4)GlcNAc(b1-3)Gal(b1-4)GlcNAc(b1-3)Gal(b1-4)GlcNAc(b1-3)Gal(b1-4)GlcNAc(b1-2)[GlcNAc(b1-3)Gal(b1-4)GlcNAc(b1-3)Gal(b1-4)GlcNAc(b1-3)Gal(b1-4)GlcNAc(b1-3)Gal(b1-4)GlcNAc(b1-6)]Man(a1-6)[GlcNAc(b1-3)Gal(b1-4)GlcNAc(b1-3)Gal(b1-4)GlcNAc(b1-3)Gal(b1-4)GlcNAc(b1-3)Gal(b1-4)GlcNAc(b1-2)Man(a1-3)]Man(b1-4)GlcNAc(b1-4)[Fuc(a1-6)]GlcNAc
# Procedure, shortened: as §1
# [16] = molecular target: GlcNAc(b1-3)Gal(b1-4)GlcNAc(b1-3)Gal(b1-4)GlcNAc(b1-3)GalNAc
# Procedure, shortened: as §1
# [17] = molecular target: GlcNAc(b1-3)Gal(b1-4)GlcNAc(b1-3)GalNAc
# Procedure, shortened: as §1
# [18] = molecular target: GlcNAc(b1-3)Gal(b1-4)GlcNAc(b1-3)[GlcNAc(b1-3)Gal(b1-4)GlcNAc(b1-3)]GalNAc
# Procedure, shortened: as §1
binder,measurement,setting,value
B1,glycan array binding signal (z-score),[1],-0.369
same,glycan array binding signal (z-score),[2],-0.631
same,glycan array binding signal (z-score),[3],0.116
same,glycan array binding signal (z-score),[4],0.507
same,glycan array binding signal (z-score),[5],-0.33
same,glycan array binding signal (z-score),[6],-0.544
same,glycan array binding signal (z-score),[7],0.846
same,glycan array binding signal (z-score),[8],0.761
same,glycan array binding signal (z-score),[9],0.334
same,glycan array binding signal (z-score),[10],0.039
same,glycan array binding signal (z-score),[11],1.18
same,glycan array binding signal (z-score),[12],1.99
same,glycan array binding signal (z-score),[13],1.22
same,glycan array binding signal (z-score),[14],1.59
same,glycan array binding signal (z-score),[15],1.58
same,glycan array binding signal (z-score),[16],0.254
same,glycan array binding signal (z-score),[17],-0.506
same,glycan array binding signal (z-score),[18],-0.459

# Pulled one by one from the entries so far:
binder,measurement,setting,value
B1,glycan array binding signal (z-score),[18],-0.459
same,glycan array binding signal (z-score),[13],1.22
